These are yes or no findings as the source states them, for the method shown. For some assays here: Binding seen in cells or lysates may run through a third protein. Some entries that bind do so weakly or less than the wild type. For some assays here: Tags and fused reporters may be left off the sequences shown.
Experiments:
[1] = target: HA-tagged YAP, wild type, expressed in 293T cells (UniProt P46937); experiment: co-IP; 293T cells cotransfected with HA-YAP (wild type or alanine mutants) and TWF2; precipitated with anti-HA antibody
[2] = target: His6-tagged YAP, purified (immobilised in BLI) (UniProt P46937); experiment: BLI; Octet R8; His6-tagged YAP immobilised on HIS1K biosensors, serial dilutions of TWF2 protein; 20 mM HEPES pH 7.5, 300 mM NaCl, 2 mM MgCl2, 0.02% Tween; 360 s association, 360 s dissociation; both purified

By UniProt entry, the sequences of proteins in these tests, tags left out.
UniProt P46937: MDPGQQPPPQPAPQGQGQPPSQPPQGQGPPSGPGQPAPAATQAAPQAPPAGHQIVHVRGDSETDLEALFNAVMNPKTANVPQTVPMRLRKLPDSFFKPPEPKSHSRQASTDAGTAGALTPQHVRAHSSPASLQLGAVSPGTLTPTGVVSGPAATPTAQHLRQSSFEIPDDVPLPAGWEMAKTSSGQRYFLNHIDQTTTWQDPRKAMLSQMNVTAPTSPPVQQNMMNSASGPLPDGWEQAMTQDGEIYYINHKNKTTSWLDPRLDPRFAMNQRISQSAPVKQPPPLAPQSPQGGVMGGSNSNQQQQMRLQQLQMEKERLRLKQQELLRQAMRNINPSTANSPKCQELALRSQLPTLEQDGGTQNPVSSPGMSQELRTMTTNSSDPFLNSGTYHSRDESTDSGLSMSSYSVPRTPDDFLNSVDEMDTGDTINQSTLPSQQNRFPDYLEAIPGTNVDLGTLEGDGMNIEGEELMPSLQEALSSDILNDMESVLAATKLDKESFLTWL

Row | binding [1] | binding [2] | Binder
1 | binds |  | Flag-tagged TWF2, wild type, expressed in 293T cells (protein, UniProt Q6IBS0 1-349) MAHQTGIHATEELKEFFAKARAGSVRLIKVVIEDEQLVLGASQEPVGRWDQDYDRAVLPLLDAQQPCYLLYRLDSQNAQGFEWLFLAWSPDNSPVRLKMLYAATRATVKKEFGGGHIKDELFGTVKDDLSFAGYQKHLSSCAAPAPLTSAERELQQIRINEVKTEISVESKHQTLQGLAFPLQPEAQRALQQLKQKMVNYIQMKLDLERETIELVHTEPTDVAQLPSRVPRDAARYHFFLYKHTHEGDPLESVVFIYSMPGYKCSIKERMLYSSCKSRLLDSVEQDFHLEIAKKIEIGDGAELTAEFLYDEVHPKQHAFKQAFAKPKGPGGKRGHKRLIRGPGENGDDS
2 |  | binds | recombinant TWF2, purified (BLI analyte) (protein, UniProt Q6IBS0 1-349) MAHQTGIHATEELKEFFAKARAGSVRLIKVVIEDEQLVLGASQEPVGRWDQDYDRAVLPLLDAQQPCYLLYRLDSQNAQGFEWLFLAWSPDNSPVRLKMLYAATRATVKKEFGGGHIKDELFGTVKDDLSFAGYQKHLSSCAAPAPLTSAERELQQIRINEVKTEISVESKHQTLQGLAFPLQPEAQRALQQLKQKMVNYIQMKLDLERETIELVHTEPTDVAQLPSRVPRDAARYHFFLYKHTHEGDPLESVVFIYSMPGYKCSIKERMLYSSCKSRLLDSVEQDFHLEIAKKIEIGDGAELTAEFLYDEVHPKQHAFKQAFAKPKGPGGKRGHKRLIRGPGENGDDS

— paper PMC12667553, “TWF2 Drives Tumor Progression and Sunitinib Resistance in Renal Cell Carcinoma through Hippo Signaling Suppression” (Advanced Science, 2025)
